# Assay results taken from patent US20080269310A1, “Synergistic Combinations” (priority 2005, published 2008).
# Some results were stated once for a whole list of compounds, not compound by compound.
# Tested on: carrageenan-induced thermal hyperalgesia
# Assay: rat carrageenan footpad thermal hyperalgesia assay (Hargreaves test)
# Assay type: in vivo
# Conditions: gabapentin 10 mg/kg alone, SC
# Description: The aim of this experiment was to characterize the anti-nociceptive and anti-inflammatory effects of gabapentin administered in combination with carprofen in the rat. In this example, gabapentin, carprofen, and the combination of gabapentin and carprofen were evaluated in a standard rat carrageenan footpad thermal hyperalgesia assay. This assay utilizes an extract of seaweed (carrageenan) that, when injected into the footpad of test animals, causes a sterile inflammation, thereby lowering the pain threshold. […]
# Each data point represents the mean and standard error of mean. […] The theoretical dose-additive line for a 10:1 dose ratio was determined (dotted line) as described (Tallarida, 1992). The experimental determination of a 10:1 dose ratio was determined (gabapentin-carprofen mixture 10:1) and a shift to the left of the theoretical dose-additive line was found. […]
# Dose-effect curves were first determined for (1) gabapentin by itself and (2) carprofen by itself. The ED50 value of each agent was determined, as was the time to peak effect. […]
# Carrageenan-induced thermal hyperalgesia: Rats were acclimated to a testing chamber whose glass floor was maintained at 25° C. One hour later, a high intensity beam of light was focused through the glass on the ventral surface of each hind paw, and the latency to reflex withdrawal of the paw from the light beam was measured to the nearest 0.1 second. […]
structure (smiles),measurement,value
"NCC1(CC(=O)O)CCCCC1 [gabapentin, 1-(aminomethyl)-cyclohexylacetic acid]",antihyperalgesic effect,≤ 10%
